Assay results from paper PMC11079001.
No constants are given. Whether binding was seen depends on the method and setting. In cells and extracts the contact can be indirect. Some results given as binding are weak or reduced against the parent protein; the word gives no strength. Where a sequence is shown, tags or fusion partners need not be part of it.

Protein sequences, listed by entry. Tags and fused reporters are not part of them.
UniProt P52286: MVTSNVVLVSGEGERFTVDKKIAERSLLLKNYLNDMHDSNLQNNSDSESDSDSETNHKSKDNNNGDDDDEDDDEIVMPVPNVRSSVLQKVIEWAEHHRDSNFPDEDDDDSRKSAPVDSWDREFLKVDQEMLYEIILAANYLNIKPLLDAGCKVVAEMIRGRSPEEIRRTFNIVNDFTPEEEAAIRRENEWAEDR

Assays:
Test in all cases: co-IP; 12xMyc-Met30 variants immunoprecipitated on MYC-trap beads from 1 mg native yeast whole cell lysate (Triton X-100 buffer: 50 mM HEPES pH 7.5, 0.2% Triton X-100, 200 mM NaCl), overnight at 4 °C; co-precipitated Skp1 by western blot; cells untreated or treated with 100 µM CdCl2 (time courses); also H2O2 or zinc pre-treatment
[1] = target: T1, 12xMyc-Met30 wild type (S. cerevisiae) (UniProt P39014)
T1 sequence: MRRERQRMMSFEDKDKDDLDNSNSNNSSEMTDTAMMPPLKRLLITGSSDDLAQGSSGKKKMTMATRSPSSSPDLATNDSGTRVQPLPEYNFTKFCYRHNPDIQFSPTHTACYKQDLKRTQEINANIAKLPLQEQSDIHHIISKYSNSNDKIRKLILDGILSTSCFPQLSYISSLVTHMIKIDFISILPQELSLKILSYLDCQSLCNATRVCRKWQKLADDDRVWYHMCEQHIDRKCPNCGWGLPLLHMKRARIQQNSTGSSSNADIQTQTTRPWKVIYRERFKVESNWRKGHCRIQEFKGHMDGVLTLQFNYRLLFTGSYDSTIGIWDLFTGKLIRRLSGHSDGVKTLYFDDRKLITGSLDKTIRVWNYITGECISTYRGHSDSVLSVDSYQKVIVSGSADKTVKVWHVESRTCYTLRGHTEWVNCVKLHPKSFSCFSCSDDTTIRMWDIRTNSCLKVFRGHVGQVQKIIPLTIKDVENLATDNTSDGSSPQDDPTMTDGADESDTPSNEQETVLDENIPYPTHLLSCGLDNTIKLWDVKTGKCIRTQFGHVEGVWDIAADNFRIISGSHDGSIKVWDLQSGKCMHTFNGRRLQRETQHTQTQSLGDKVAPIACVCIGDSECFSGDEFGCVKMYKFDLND

[2] = target: T2, 12xMyc-Met30 ∆113-180 (S. cerevisiae) (UniProt P39014)
T2 sequence: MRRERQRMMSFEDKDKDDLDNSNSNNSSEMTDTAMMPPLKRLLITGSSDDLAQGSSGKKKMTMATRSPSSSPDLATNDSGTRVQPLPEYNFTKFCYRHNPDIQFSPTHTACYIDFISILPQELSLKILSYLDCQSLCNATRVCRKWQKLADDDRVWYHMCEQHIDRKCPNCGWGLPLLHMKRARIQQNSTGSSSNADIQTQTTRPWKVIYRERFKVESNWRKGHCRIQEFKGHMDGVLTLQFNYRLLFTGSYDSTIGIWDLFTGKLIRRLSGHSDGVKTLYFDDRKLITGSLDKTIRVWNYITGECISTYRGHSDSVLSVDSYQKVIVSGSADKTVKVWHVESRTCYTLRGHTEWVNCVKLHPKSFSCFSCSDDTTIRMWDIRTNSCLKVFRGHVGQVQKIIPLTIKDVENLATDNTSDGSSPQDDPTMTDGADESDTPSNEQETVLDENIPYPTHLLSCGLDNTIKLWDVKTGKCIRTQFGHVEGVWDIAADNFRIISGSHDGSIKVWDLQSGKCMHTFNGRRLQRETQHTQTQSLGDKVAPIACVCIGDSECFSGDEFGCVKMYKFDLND

[3] = target: T3, 12xMyc-Met30 ∆1–113 (S. cerevisiae) (UniProt P39014)
T3 sequence: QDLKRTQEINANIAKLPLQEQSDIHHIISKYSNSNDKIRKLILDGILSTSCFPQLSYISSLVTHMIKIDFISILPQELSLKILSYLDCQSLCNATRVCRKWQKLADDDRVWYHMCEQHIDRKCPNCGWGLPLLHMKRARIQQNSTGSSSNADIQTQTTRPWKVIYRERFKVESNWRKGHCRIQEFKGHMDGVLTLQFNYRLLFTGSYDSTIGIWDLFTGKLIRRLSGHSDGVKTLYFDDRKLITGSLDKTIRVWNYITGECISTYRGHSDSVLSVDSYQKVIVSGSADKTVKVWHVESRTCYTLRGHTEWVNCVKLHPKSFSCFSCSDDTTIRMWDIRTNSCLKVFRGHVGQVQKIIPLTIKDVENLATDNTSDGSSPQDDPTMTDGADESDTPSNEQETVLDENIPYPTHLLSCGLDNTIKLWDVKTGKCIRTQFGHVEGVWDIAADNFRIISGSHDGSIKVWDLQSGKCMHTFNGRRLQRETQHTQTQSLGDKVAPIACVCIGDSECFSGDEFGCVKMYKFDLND

binding [1]: binds
binding [2]: binds
binding [3]: binds
Substance: Skp1 (from UniProt P52286 1-194)
